These are yes or no findings as the source states them, for the method shown. In cells and extracts the contact can be indirect. Some entries that bind do so weakly or less than the wild type.
Columns and labels:
[1] = molecular target: AMBRA1 (human (endogenous in 2FTGH fibroblasts and SK-N-BE2 cells)) (UniProt Q9C0C7); test: co-IP; human 2FTGH fibroblasts, untreated or treated with HBSS 1 h at 37 °C; lysis in 10 mM Tris-HCl pH 8.0, 150 mM NaCl, 1% Nonidet P-40; immunoprecipitation with rabbit anti-AMBRA1 PAb and protein G-acrylic beads at 4 °C; Western blot of the immunoprecipitates
[2] = molecular target: AMBRA1 (human (endogenous in 2FTGH fibroblasts and SK-N-BE2 cells)) (UniProt Q9C0C7); test: co-IP; SK-N-BE2 (SKNB-E-2) neuroblastoma cells, untreated or treated with HBSS 1 h; lysis in 10 mM Tris-HCl pH 8.0, 150 mM NaCl, 1% Nonidet P-40; immunoprecipitation with rabbit anti-AMBRA1 PAb and protein G-acrylic beads at 4 °C; Western blot of the immunoprecipitates

Sequences of proteins named here, by UniProt entry; tags and fusion partners are left off.
UniProt Q9C0C7: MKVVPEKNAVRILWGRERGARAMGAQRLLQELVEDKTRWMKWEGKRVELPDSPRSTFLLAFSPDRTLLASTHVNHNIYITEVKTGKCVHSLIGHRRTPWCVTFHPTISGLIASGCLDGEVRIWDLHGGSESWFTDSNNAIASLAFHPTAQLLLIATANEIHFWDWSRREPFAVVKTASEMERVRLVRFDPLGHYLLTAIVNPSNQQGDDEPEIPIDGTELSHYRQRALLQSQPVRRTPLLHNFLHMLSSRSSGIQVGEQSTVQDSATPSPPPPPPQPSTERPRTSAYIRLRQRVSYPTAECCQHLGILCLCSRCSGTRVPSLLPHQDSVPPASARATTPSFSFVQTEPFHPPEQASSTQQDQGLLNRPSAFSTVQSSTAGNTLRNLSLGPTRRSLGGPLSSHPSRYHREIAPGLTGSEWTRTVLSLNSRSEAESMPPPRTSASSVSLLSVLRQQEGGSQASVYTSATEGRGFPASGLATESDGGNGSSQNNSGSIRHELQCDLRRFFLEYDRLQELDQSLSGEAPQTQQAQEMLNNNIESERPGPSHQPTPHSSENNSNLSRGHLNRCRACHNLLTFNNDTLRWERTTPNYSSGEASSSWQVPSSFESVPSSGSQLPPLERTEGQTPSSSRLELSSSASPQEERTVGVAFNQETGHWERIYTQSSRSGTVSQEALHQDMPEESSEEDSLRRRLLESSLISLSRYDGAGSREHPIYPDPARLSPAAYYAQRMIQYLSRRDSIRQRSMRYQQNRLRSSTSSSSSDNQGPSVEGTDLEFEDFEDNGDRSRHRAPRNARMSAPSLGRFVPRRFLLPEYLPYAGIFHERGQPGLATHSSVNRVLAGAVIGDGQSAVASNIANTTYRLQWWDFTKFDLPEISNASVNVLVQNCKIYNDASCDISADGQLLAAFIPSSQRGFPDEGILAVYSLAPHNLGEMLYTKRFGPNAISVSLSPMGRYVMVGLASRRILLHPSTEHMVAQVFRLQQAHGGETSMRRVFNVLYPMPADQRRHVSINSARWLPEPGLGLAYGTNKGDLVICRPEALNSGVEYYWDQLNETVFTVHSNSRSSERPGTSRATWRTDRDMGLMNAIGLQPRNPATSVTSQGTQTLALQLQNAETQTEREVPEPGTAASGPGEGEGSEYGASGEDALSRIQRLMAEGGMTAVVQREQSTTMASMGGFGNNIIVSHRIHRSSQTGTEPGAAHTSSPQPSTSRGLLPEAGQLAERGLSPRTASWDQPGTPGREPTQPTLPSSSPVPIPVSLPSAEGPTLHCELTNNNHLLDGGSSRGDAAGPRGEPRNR

B1: WIPI1 (protein, UniProt Q5MNZ9 1-446)
chain: MEAEAADAPPGGVESALSCFSFNQDCTSLATGTKAGYKLFSLSSVEQLDQVHGSNEIPDVYIVERLFSSSLVVVVSHTKPRQMNVYHFKKGTEICNYSYSSNILSIRLNRQRLLVCLEESIYIHNIKDMKLLKTLLDIPANPTGLCALSINHSNSYLAYPGSLTSGEIVLYDGNSLKTVCTIAAHEGTLAAITFNASGSKLASASEKGTVIRVFSVPDGQKLYEFRRGMKRYVTISSLVFSMDSQFLCASSNTETVHIFKLEQVTNSRPEEPSTWSGYMGKMFMAATNYLPTQVSDMMHQDRAFATARLNFSGQRNICTLSTIQKLPRLLVASSSGHLYMYNLDPQDGGECVLIKTHSLLGSGTTEENKENDLRPSLPQSYAATVARPSASSASTVPGYSEDGGALRGEVIPEHEFATGPVCLDDENEFPPIILCRGNQKGKTKQS
- binding [1]: binds
- binding [2]: binds
